These are yes or no findings as the source states them, for the method shown. In cells and extracts the contact can be indirect. Here binding means that the protein was enriched with, or labelled near, the bait; the list need not be complete.
Target: H3K9me3 peptide, …(me3)…-biotin
Assay: affinity purification with mass spectrometry; H3 (aa 1-21) peptides unmodified or K9me3 immobilized on magnetic beads, incubated with HeLa S3 nuclear extract; SDS-PAGE, whole lanes digested, MS/MS; sets of the pulldowns subtracted; only the target purified

B1: CDYL1, endogenous in HeLa S3 nuclear extract (protein, UniProt Q9Y232 1-598)
chain: MTFQASHRSAWGKSRKKNWQYEGPTQKLFLKRNNVSAPDGPSDPSISVSSEQSGAQQPPALQVERIVDKRKNKKGKTEYLVRWKGYDSEDDTWEPEQHLVNCEEYIHDFNRRHTEKQKESTLTRTNRTSPNNARKQISRSTNSNFSKTSPKALVIGKDHESKNSQLFAASQKFRKNTAPSLSSRKNMDLAKSGIKILVPKSPVKSRTAVDGFQSESPEKLDPVEQGQEDTVAPEVAAEKPVGALLGPGAERARMGSRPRIHPLVPQVPGPVTAAMATGLAVNGKGTSPFMDALTANGTTNIQTSVTGVTASKRKFIDDRRDQPFDKRLRFSVRQTESAYRYRDIVVRKQDGFTHILLSTKSSENNSLNPEVMREVQSALSTAAADDSKLVLLSAVGSVFCCGLDFIYFIRRLTDDRKRESTKMAEAIRNFVNTFIQFKKPIIVAVNGPAIGLGASILPLCDVVWANEKAWFQTPYTTFGQSPDGCSTVMFPKIMGGASANEMLLSGRKLTAQEACGKGLVSQVFWPGTFTQEVMVRIKELASCNPVVLEESKALVRCNMKMELEQANERECEVLKKIWGSAQGMDSMLKYLQRKIDEF
- binding: binds

Source: paper PMC3022755, “HP1 Recruits Activity-Dependent Neuroprotective Protein to H3K9me3 Marked Pericentromeric Heterochromatin for Silencing of Major Satellite Repeats” (PLoS ONE, 2011)
